# No constants are given. Whether binding was seen depends on the method and setting.
# B1: mouse anti-HMGB1 monoclonal antibody DPH1.1 (antibody, IgG1, V domains shown)
# VH: LLEESGAELVKPGASVKLSCTASGFNIEDTYVHWVKQRPEQGLEWIGRIDPANGNSKYDPKFQGKATLTADTFSNTAYLQLSSLTSEDTAVYYCAVTGTGALDYWGQGT
# VL: ELVLTQPPSSLAVSAGEKVTMSCKSSQSVLYSSNQKNYLAWYQQKPGQSPKLLIYWASTRESGVPDRFTGSGSGTDFTLNITNVQPDDLAVYYCHQYLSSVTFGAGTKLELKR
# Target: recombinant BoxA domain of HMGB1
# Assay: Western blot
binder,measurement,value
B1,binding,no binding (tested: 500 ng or 100 ng BoxA per lane)

# — patent publication US20140030271A1
